Measurements: US20070082858A1, “Methods and compositions for the prevention of toxic side effects of aminoglycoside medications” (priority 2004, published 2007)

Assays:
[1] = tested on: MDCK cells; experiment: GTTR uptake, distribution and saturability in MDCK cells (2 hours); type: cell-based, canine; conditions: 1 μg/mL, 37° C., 2-2.5 hours
Method: MDCK cells were treated with 1 μg/ml purified GTTR for […] in complete medium at 37° C., then washed 3× with complete medium.
Both OK and MDCK cells were used in these studies. Both cell lines were treated with GTTR at 1 μg/ml in complete culture medium for two hours at either 37° C. or over ice. These cells were also treated with a dose range of 0 to 4000 μg/ml of unlabeled GT. Cells were washed and imaged live, then fixed with FATX, and washed again with buffer prior to re-imaging (as in FIG. 6, A3). […] Thus, cytoplasmic, but not endosomal, uptake of GTTR was saturable.
GTTR treatment: Subconfluent MDCK or OK cells were treated with 1 μg/mL of GTTR, in complete medium, for 2 hours at 37° C. or on ice. (The amount of GTTR is expressed as the weight of the gentamicin moiety within the conjugate.) In competition experiments, MDCK cells were simultaneously treated with unlabeled gentamicin (up to 4 mg/mL) for 2 hours.
Fixation, delipidation, and washing: After treatment, cells were washed three times with complete medium, and then immediately imaged live (see below; FIG. 27A), or fixed. […] Alternatively, cells were fixed in 4% formaldehyde alone (FA), washed and imaged (FIG. 27C), prior to delipidated with 0.5% Triton X-100 in PBS, washed thoroughly, and imaged again (FIG. 27D). […]

[2] = PIP2 quenching of GTTR and TR fluorescence (fixed cells and 3-d scanning fluorescence spectroscopy)
Method: PIP2: Monolayer MDCK cells were grown in coverglass chambers as described above. After fixation, delipidation, washing and imaging (FIG. 27B), cells were treated with 1 mg/mL phosphatidylinositol-4,5-bisphosphate (PIP2, Echelon Biosciences, Salt Lake City, Utah) for 1.5 hours and re-imaged (FIG. 27E), prior to a second delipidation with 0.5% Triton, washing and imaging again (FIG. 27F).
Spectrophotometry: 3-d scanning fluorescence spectroscopy of solutions containing TR or GTTR with or without (PIP2) were performed using a Safire fluorescence microplate reader (Tecan, Research Triangle Park, N.C.). GTTR (100 μg/mL; weight as gentamicin in molecule) and PIP2 (155 μg/mL; approximately equimolar) were mixed vigorously in PBS solution and allowed to stand at room temperature for ½ hour prior to scanning. This was compared to the same concentration of GTTR alone in solution. Similar hydrolyzed Texas Red solutions (at the same concentration as the Texas Red moiety in GTTR solutions), with or without PIP2, were used as controls. Excitation and emission spectra were obtained over an excitation range of 570-604 nm (bandwidth 5 nm) and an emission range of 610-650 nm (bandwidth 5 nm).

| Compound | intracellular distribution of fluorescence after FATX fixation ([1]; fixed with formaldehyde plus 0.5% Triton X-100) | intracellular distribution of fluorescence in live cells ([1]; imaged live) | TR fluorescence in solution ([2]; PIP2 combined with TR alone in solution) | GTTR fluorescence in solution ([2]; PIP2 in solution with GTTR, excitation 570-604 nm, emission 610-650 nm) |
| --- | --- | --- | --- | --- |
| O=S(=O)([O-])c1cc(S(=O)(=O)O)ccc1C1=c2cc3c4c(c2Oc2c1cc1c5c2CCCN5CCC1)CCC[N+]=4CCC3 [hydrolyzed TR, Texas Red] | not after FATX treatment | fluorescently-labeled vesicles | – | – |
| phosphatidylinositol-4,5-bisphosphate [PIP2] | – | – | no such quenching effect was observed | quenching effect at all wavelengths |
